The subject of this data set is HUVEC cells. Briefly: WST-1 cell proliferation assay. Type of data set: cell-based, human. Here is the method:
Figure 4 PsA Potently Activates HUVEC Proliferation. […] Note saturation kinetics. Cytotoxicity is illustrated as a vertical dashed line at 1.5 × 10^−5 M in all vehicles tested. The percentage increase was calculated as [100 × (T/C)] where T/C is defined as […]. Data are presented as mean ± SEM (n = 16).
For each experiment cells were split at 80% confluence. All experiments were conducted between generations 4 and 10.
HUVEC were harvested from a T-75 plate by trypsinization and resuspended in EGM-2 complete culture media. Cells were plated at 500 cells per well of a 96-well plate and incubated overnight at 37 °C in a 5% CO2 atmosphere. EGM-2 complete culture media was removed and replaced with starvation media for 8 h. During this time, drug dilutions were prepared in growth factor depleted media. Starvation media was replaced with drug dilution in growth factor depleted media and incubated at 37 °C in a 5% CO2 atmosphere. After 41 h, 10 µL of WST-1 reagent was added to each well and incubated for 1 h. Plates were then read on a multiplate reader at 450 nm with background reference of 650 nm.
A general note: Tetrazolium assays rely on reduction of a dye to a coloured formazan, in cell work by metabolically active cells.

For one compound, nH and estimated cell count results are on record in paper PMC3806459, “Cyclodextrin Formulation of the Marine Natural Product Pseudopterosin A Uncovers Optimal Pharmacodynamics in Proliferation Studies of Human Umbilical Vein Endothelial Cells” (Marine Drugs, 2013).

For `CC(C)=C[C@H]1C[C@H](C)[C@H]2CC[C@H](C)c3c(O[C@@H]4OC[C@@H](O)[C@H](O)[C@H]4O)c(O)c(C)c1c32` [Analog 4, Pseudopterosin A], the nH (PsA in 0.016% Cremophor EL) is recorded as 2.51 and the nH (PsA in 0.05% HPβCD) was 0.95. The estimated cell count (after 5 days, 1.0 × 10^−7 M PsA, estimated from Nt = Ninitial e^(rate × time)) is reported as 125,000.
